Residue numbers refer to the chain shown, from its start. Numbers in names are those of the source.
Test: Photochemical activity / spectral properties of PCB adducts (photoreversibility, difference spectrum)
Conditions: for Photoreveribility / Difference Spectrum: PCB adducts of site-directed mutants of Cph1 (N514)
From the text: This work thus confirms that the structural motif illustrated in FIG. 2 represents the bilin-binding domain of the ‘phytochrome superfamily’ from which new phytofluors of different colors can be devised.
Based on the multiple sequence alignment shown in FIG. 2, and using methods described in W098/04700, a bacterial expression vector express a Strep-Tagged version of N-terminal 197 amino acid region of Cph2 (Cph2-N197) that encompassed ‘module 1’ only was constructed (see, FIG. 3).
To address the importance of conserved residues in the bilin lyase domain of Cph1 to bilin attachment and spectral properties of its bilin adducts, site-directed mutagenesis of some of these residues were undertaken. Charged residues D171, R172, E189 and R222 of Cph1 (N514) were mutagenized in the initial studies.

B1: Cph1 (N514) Wild Type: N514 deletion mutant of Synechocystis sp. PCC 6803 apophytochrome Cph1, wild-type sequence (protein, UniProt Q55168 1-514, looked up, fragment)
chain: MATTVQLSDQSLRQLETLAIHTAHLIQPHGLVVVLQEPDLTISQISANCTGILGRSPEDLLGRTLGEVFDSFQIDPIQSRLTAGQISSLNPSKLWARVMGDDFVIFDGVFHRNSDGLLVCELEPAYTSDNLPFLGFYHMANAALNRLRQQANLRDFYDVIVEEVRRMTGFDRVMLYRFDENNHGDVIAEDKRDDMEPYLGLHYPESDIPQPARRLFIHNPIRVIPDVYGVAVPLTPAVNPSTNRAVDLTESILRSAYHCHLTYLKNMGVGASLTISLIKDGHLWGLIACHHQTPKVIPFELRKACEFFGRVVFSNISAQEDTETFDYRVQLAEHEAVLLDKMTTAADFVEGLTNHPDRLLGLTGSQGAAICFGEKLILVGETPDEKAVQYLLQWLENREVQDVFFTSSLSQIYPDAVNFKSVASGLLAIPIARHNFLLWFRPEVLQTVNWGGDPNHAYEATQEDGKIELHPRQSFDLWKEIVRLQSLPWQSVEIQSALALKKAIVNLILRQAEE
  Photoreveribility: yes
  photochemical activity of species formed upon incubation with PCB: photochemically active

B2: cph2a (N390): first 390 amino acid residues of Cph2 (SLL0821), N-terminal phytochrome-related domain (protein, UniProt Q55434 1-390, looked up, fragment)
chain: MNPNRSLEDFLRNVINKFHRALTLRETLQVIVEEARIFLGVDRVKIYKFASDGSGEVLAEAVNRAALPSLLGLHFPVEDIPPQAREELGNQRKMIAVDVAHRRKKSHELSGRISPTEHSNGHYTTVDSCHIQYLLAMGVLSSLTVPVMQDQQLWGIMAVHHSKPRRFTEQEWETMALLSKEVSLAITQSQLSRQVHQQQVQEALVQRLETTVAQYGDRPETWQYALETVGQAVEADGAVLYIAPDLTGSVAQHYQWNLRFDWGNWLETSLWQELMRGQPSAAMEPMAAVQSTWEKPRPFTSVAPLPPTNCVPHGYTLGELEQRSDWIAPPESLSAENFQSFLIVPLAADQQWVGSLILLRKEKSLVKHWAGKRGIDRRNILPRLSFEAWE
  photochemical activity of species formed upon incubation with PCB: photochemically active
Listed as Cph2
  photochemical activity of species formed upon incubation with PCB: red, far-red photoreversible

B3: Cph2-N197: Strep-Tagged N-terminal 197 amino acid region of Cph2 (SEQ ID NO: 9), module 1 only (protein)
chain: KLAVRAISRLQSLPGGDIGALCDTVVEDVQRLTGYDRVMVYQFHEDDHGEVVSEIRRSDLEPYLGLHYPATDIPQAARFLFKQNRVRMICDCNATPVKVVQSEELKRPLCLVNSTLRAPHGCHTQYMANMGSVASLALAIVVKGKDSSKLWGLVVGHHCSPRYVPFPLRYACEFLMQAFGLQLQMELQLASQLAEK
modifications: Strep-Tag
Purified PCB-Cph2 adduct
  optical properties of purified PCB adduct: phytochrome-like optical properties including a red minus far-red difference spectra

B4: Cph1 (N514) R222G: site-directed single mutant R222G of Cph1 (N514) (protein, UniProt Q55168 1-514, looked up, variant R222G)
chain: B1 chain with R222G
modifications: N514 fragment
  Difference Spectrum: blue shifted
  Photoreveribility: yes

B5: Cph1 (N514) DR171/2AA: double mutant D171A/R172A of Cph1 (N514) (protein, UniProt Q55168 1-514, looked up, variant D171A R172A)
chain: B1 chain with D171A, R172A
modifications: N514 fragment
  Difference Spectrum: none
  Photoreveribility: no

B6: Cph1 (N514) DR171/2AG: double mutant D171A/R172G of Cph1 (N514) (protein, UniProt Q55168 1-514, looked up, variant D171A R172G)
chain: B1 chain with D171A, R172G
modifications: N514 fragment
  Difference Spectrum: none
  Photoreveribility: no

B7: Cph1 (N514) D171A: site-directed single mutant D171A of Cph1 (N514) (protein, UniProt Q55168 1-514, looked up, variant D171A)
chain: B1 chain with D171A
modifications: N514 fragment
  Photoreveribility: yes

— patent publication US20020022239A1, “PHYTOFLUORS AS FLUORESCENT LABELS” (priority 1999, published 2002)
